Laboratory results taken from US20140378395A1, “Peptides for the Treatment of Hearing” (13Therapeutics, Inc., priority 2011, published 2014).
“Also recorded” adds a separate entry of the source. Not every detail of the peptide structures is certain; ends, links or a residue may be inferred. No end group written: not given here.

Assays:
BALB/c mice [1] = test: Middle ear inflammation: heat-inactivated S. pneumoniae plus peptide injected into the middle ear, histology after 3 days; format: in vivo, mouse
C57Bl/6 mice = test: Age-related hearing loss, ABR; format: in vivo, mouse; settings: n=10, topical ear drops in one ear from 12 weeks
BALB/c mice [2] = test: Hearing levels in normal mice, ABR; format: in vivo, mouse; settings: 1 μg ear drops
BALB/c mice [3] = test: Topical (ear drop) treatment in AOM model, middle ear histology; format: in vivo, mouse; settings: 1 μg/30 μL ear drop 24 hours after bacteria; histology at 72 hours
CBA/CaJ mice = test: Noise-induced hearing loss, ABR; format: in vivo, mouse; settings: 1 μg topical; broad band noise 100 dB(A) SPL; ABR 16 and 32 kHz
C3H/HeJ mice = test: Topical treatment in chronic otitis media (COM) model, ABR; format: in vivo, mouse; settings: week 2 post-treatment
[4] = system: TNF-α production in RAW264.7 cells; format: cell-based, murine; settings: 30 μg/mL, 15 minutes pre-incubation, 4 hours
[5] = system: toll-like receptor-dependent signaling; test: Cytokine secretion / signaling in response to TLR activation in vitro; format: cell-based; settings: TLR ligands individually or in combination
Experimental: RAW264.7 cells were plated at 1.5×10^5 cells/well-3×10^5 cells/well in 48-well plates. After 24 hours, the cells were incubated with peptides at various concentrations at room temperature in triplicate either before, simultaneous with, or after activation with various PAMPs for 18 hours. Cell-free supernatants were analyzed for cytokines by ELISA, in quadruplicate. RAW264.7 cells were stimulated with either CpG-ODN (1 μg/ml or 1.25 μg/ml), LPS (about 1 ng/ml), Poly (I:C) (about 10 μg/ml), flagellin (about 5 ng/ml), or zymosan (about 10 μg/ml). Dose response curves were done with each PAMP to determine optimal stimulation concentration. For CpG-ODN stimulation, cells were incubated for 4 hours at 37° C., supernatants collected, and TNF-α measured by ELISA. Any cytokine involved in inflammatory disease mediated toll receptor signaling can be measured using similar assays.

BALB/c mice [6] = test: Topical treatment in AOM model, hearing by auditory brainstem response (ABR); format: in vivo, mouse; settings: 1 μg/30 μL ear drop 24 hours after bacteria; days 5 and 13

## DIVKLTVYDCI [Peptide P13, DIVKLTVYDCI]
BALB/c mice [1]; 7 mice with disease, 10 μM peptide
  mice with reductions in all areas of inflammation: 6 of the 7
BALB/c mice [1]; S. pneumoniae + peptide about 10 μM, diseased animals, 3 days, S. pneumoniae alone 105 ± 33, p = 0.002
  Tympanic Membrane Thickness (microns ± S.D.): 44 ± 15 microns
BALB/c mice [1]; S. pneumoniae + peptide about 10 μM, diseased animals, 3 days, S. pneumoniae alone 252 ± 140, p = 0.020
  Cell Number (±S.D.): 111 ± 119
BALB/c mice [1]; S. pneumoniae + peptide about 10 μM, diseased animals, 3 days, S. pneumoniae alone 5771 ± 2077, p = 0.004
  Fluid Area (microns^2 ± S.D.): 1486 ± 1192 microns^2
BALB/c mice [1]; single dose with heat-inactivated S. pneumoniae, paired t-tests
  bacterial-induced middle ear inflammation (amount of fluid, infiltrating cell number, thickness of the tympanic membrane): significantly reduced; also recorded: significant reduction
C57Bl/6 mice
  mice in which hearing loss was delayed in all four frequencies tested: 50%
BALB/c mice [2]
  duration of hearing improvement: about two to about three weeks
BALB/c mice [2]; week 0
  hearing after administration (ABR summed across 4, 8, 16, 32 kHz): rapid improvement in hearing
BALB/c mice [2]; week 5
  hearing after re-administration to the same ear: hearing improvement similar to what had been observed upon initial administration
BALB/c mice [3]
  cellular infiltration and residual fluid in the middle ear: reduces middle ear inflammation; also recorded: dramatically reduced
CBA/CaJ mice
  hearing loss after noise exposure versus control peptide: substantially-less hearing loss
C3H/HeJ mice; 1 μg topical
  hearing improvement at a single frequency (4 kHz) compared to controls: ~12 db
C3H/HeJ mice; topical
  improvement of hearing thresholds across all frequencies: ~40 db
[4]
  NCE-stimulated TNF-α production compared to control peptide: significantly inhibited
[5]
  cytokine secretion in response to TLR activation: inhibition of cytokine secretion
BALB/c mice [6]
  hearing impairment (ABR thresholds summed over 4, 8, 16, 32 kHz): significantly improves hearing thresholds; also recorded: significantly limited
